# The list shows a part of the results.
# B1: BabA (Helicobacter pylori), O52269_HELPY (protein)
# chain: AEDDGFYMSAGYQIGEAAQMVKNTKGIQELSDNYENLSNLLTRYSTLNTLIKLSADPSAVNAARENLGASAKNLIGDTKNSPAYQAVLLAINAAVGFWNVVGYVTQCGGNANGQKSTSSTTIFNNEPGYRSTSITCSLNGHMPGYYGPMSIENFKKLNEAYQILQTALKNGLPALKENNGTVNVTYSYTCSGEGNDNCSLQTTGVTNQNNGTKTETQTIDGKSVTTTISSKVVDSQ
# Experiments:
# Assay in all cases: glycan array binding signal (z-score within array); higher = stronger binding
# Settings in all cases: glycan notation: IUPAC condensed, linker removed
# [1] = target: Gal3S(b1-3)[Fuc(a1-4)]GlcNAc
# In short: (§1)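 Columns mapping to the same glycan were averaged after glycan names were converted to IUPAC-condensed notation. The data come from 3228 arrays in the Consortium for Functional Glycomics database, limited to those with an available protein sequence. Binding is reported as a within-array Z-score averaged across arrays of one protein sequence and across linkers.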
# [2] = target: Gal3S(b1-4)Glc
# In short: as §1
# [3] = target: Gal3S(b1-4)Glc6S
# In short: as §1
# [4] = target: Gal3S(b1-4)GlcNAc
# In short: as §1
# [5] = target: Gal3S(b1-4)GlcNAc6S
# In short: as §1
# [6] = target: Gal3S(b1-4)[Fuc(a1-3)]Glc
# In short: as §1
# [7] = target: Gal3S(b1-4)[Fuc(a1-3)]Glc6S
# In short: as §1
# [8] = target: Gal3S(b1-4)[Fuc(a1-3)]GlcNAc
# In short: as §1
# [9] = target: Gal3S(b1-4)[Fuc(a1-3)]GlcNAc6S
# In short: as §1
# [10] = target: Gal3S4S(b1-4)GlcNAc
# In short: as §1
# [11] = target: Gal3S6S(b1-4)GlcNAc
# In short: as §1
# [12] = target: Gal3S6S(b1-4)GlcNAc6S
# In short: as §1
# [13] = target: Gal4S(b1-4)GlcNAc
# In short: as §1
# [14] = target: Gal4S6S(b1-4)GlcNAc
# In short: as §1
# [15] = target: Gal6P(b1-4)GlcNAc
# In short: as §1
# [16] = target: Gal6S(b1-3)GlcNAc
# In short: as §1
# [17] = target: Gal6S(b1-3)GlcNAc6S
# In short: as §1
# [18] = target: Gal6S(b1-4)Glc
# In short: as §1
# [19] = target: Gal6S(b1-4)Glc6S
# In short: as §1
# [20] = target: Gal6S(b1-4)GlcNAc
# In short: as §1
# [21] = target: Gal6S(b1-4)GlcNAc6S
# In short: as §1
# [22] = target: GalNAc(a1-3)Gal
# In short: as §1
# [23] = target: GalNAc(a1-3)GalNAc
# In short: as §1
# [24] = target: GalNAc(a1-3)GalNAc(b1-3)Gal(a1-4)Gal(b1-4)Glc
# In short: as §1
# [25] = target: GalNAc(a1-3)GalNAc(b1-3)Gal(a1-4)Gal(b1-4)GlcNAc
# In short: as §1
# [26] = target: GalNAc(b1-3)Gal
# In short: as §1
# [27] = target: GalNAc(b1-3)Gal(a1-4)Gal(b1-4)GlcNAc
# In short: as §1
# [28] = target: GalNAc(b1-3)Gal(a1-4)Gal(b1-4)GlcNAc(b1-3)Gal(b1-4)Glc
# In short: as §1
# [29] = target: GalNAc(b1-3)Gal(a1-6)Gal(b1-4)Glc
# In short: as §1
# [30] = target: GalNAc(b1-3)GalNAc
# In short: as §1
# [31] = target: GalNAc(b1-3)GlcNAc
# In short: as §1
# [32] = target: GalNAc(b1-4)Gal(b1-4)Glc
# In short: as §1
# [33] = target: GalNAc(b1-4)GlcNAc
# In short: as §1
# [34] = target: GalNAc(b1-4)GlcNAc(b1-2)Man
# In short: as §1
# [35] = target: GalNAc(b1-4)GlcNAc(b1-2)Man(a1-3)[GalNAc(b1-4)GlcNAc(b1-2)Man(a1-6)]Man(b1-4)GlcNAc(b1-4)GlcNAc
# In short: as §1
# [36] = target: GalNAc(b1-4)GlcNAc(b1-3)GalNAc(b1-4)GlcNAc
# In short: as §1
# [37] = target: GalNAc(b1-4)GlcNAc6S
# In short: as §1
# [38] = target: GalNAc(b1-6)GalNAc
# In short: as §1
# [39] = target: GalNAc3S(b1-4)GlcNAc
# In short: as §1
# [40] = target: GalNAc3S(b1-4)GlcNAc3S
# In short: as §1
# [41] = target: GalNAc3S(b1-4)[Fuc(a1-3)]GlcNAc
# In short: as §1
# [42] = target: GalNAc4S6S(b1-4)GlcNAc
# In short: as §1
# [43] = target: GalNAc6S(b1-4)GlcNAc
# In short: as §1
# [44] = target: Glc(a1-4)Glc
# In short: as §1
# [45] = target: Glc(a1-4)Glc(a1-4)Glc(a1-4)Glc
# In short: as §1
binder,measurement,setting,value
B1,glycan array binding signal (z-score),[1],0.504
same,glycan array binding signal (z-score),[2],0.988
same,glycan array binding signal (z-score),[3],0.49
same,glycan array binding signal (z-score),[4],0.257
same,glycan array binding signal (z-score),[5],0.971
same,glycan array binding signal (z-score),[6],0.59
same,glycan array binding signal (z-score),[7],0.263
same,glycan array binding signal (z-score),[8],-0.01
same,glycan array binding signal (z-score),[9],-0.11
same,glycan array binding signal (z-score),[10],0.144
same,glycan array binding signal (z-score),[11],0.985
same,glycan array binding signal (z-score),[12],0.088
same,glycan array binding signal (z-score),[13],0.875
same,glycan array binding signal (z-score),[14],0.153
same,glycan array binding signal (z-score),[15],-0.582
same,glycan array binding signal (z-score),[16],-0.637
same,glycan array binding signal (z-score),[17],0.263
same,glycan array binding signal (z-score),[18],-0.073
same,glycan array binding signal (z-score),[19],-0.314
same,glycan array binding signal (z-score),[20],0.113
same,glycan array binding signal (z-score),[21],-0.625
same,glycan array binding signal (z-score),[22],-0.177
same,glycan array binding signal (z-score),[23],0.112
same,glycan array binding signal (z-score),[24],-0.709
same,glycan array binding signal (z-score),[25],-0.582
same,glycan array binding signal (z-score),[26],-0.825
same,glycan array binding signal (z-score),[27],-0.582
same,glycan array binding signal (z-score),[28],-0.142
same,glycan array binding signal (z-score),[29],-0.673
same,glycan array binding signal (z-score),[30],-0.807
same,glycan array binding signal (z-score),[31],-0.637
same,glycan array binding signal (z-score),[32],0.326
same,glycan array binding signal (z-score),[33],-0.141
same,glycan array binding signal (z-score),[34],-0.646
same,glycan array binding signal (z-score),[35],-0.429
same,glycan array binding signal (z-score),[36],0.917
same,glycan array binding signal (z-score),[37],0.344
same,glycan array binding signal (z-score),[38],-0.709
same,glycan array binding signal (z-score),[39],-0.482
same,glycan array binding signal (z-score),[40],-0.7
same,glycan array binding signal (z-score),[41],-0.655
same,glycan array binding signal (z-score),[42],-0.391
same,glycan array binding signal (z-score),[43],-0.764
same,glycan array binding signal (z-score),[44],0.962
same,glycan array binding signal (z-score),[45],0.344

# An excerpt of these results, with bars between the fields.
binder | measurement | setting | value
B1 | glycan array binding signal (z-score) | [6] | 0.59
same | glycan array binding signal (z-score) | [7] | 0.263

# — the supplement of paper PMC8728848
